# From PubChem BioAssay AID493014 (National Center for Advancing Translational Sciences (NCATS), 2011)
# The other results are listed elsewhere or left out. Shown are side measurements of this screen, not its main read-out; they come without a call. Compounds called inactive in the main read-out are mostly missing here. Potencies come from curve fits of mixed quality, noted in brackets.
# Test: qHTS Assay to Find Inhibitors of Chronic Active B-Cell Receptor Signaling
# Conditions: ABC-DLBCL IkBa-CBG/CBR reporter, luminescence ratio (green luciferase fused to IkBa over red control in TMD8 lymphoma cells), 4 h
# Outline: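 TMD8 human ABC-DLBCL cells with doxycycline-inducible IκBα–green luciferase fusion and unfused red luciferase, in 0.5% FBS medium; compounds up to 46 uM, 4 h at 37C. Green/red luminescence ratio, filter-overlap corrected, fitted to concentration-response curves.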
# [1] = measured here: CBR red luminescence, cell number
# [2] = measured here: IkBa-CBG green luminescence
Structure (SMILES),AC50 [1],AC50 [2]
Cn1cc(S(=O)(=O)N2CCN(c3ccccc3F)CC2)c(=O)n(C)c1=O,"29.1 µM [falling, single point]",–
CCOC(=O)C(NC(C)=O)(NC(C)C)C(F)(F)F (stereo not drawn),"31.6 µM [rising, single point]",–
O=c1c2ccccc2nc(/C=C/c2cccnc2)n1CCc1ccccc1,"12.6 µM [falling, partial curve]",–
COc1ccccc1-c1noc(-c2cccs2)n1,"1 µM [rising, partial curve]",–
CCn1cc(C(=O)Nc2ccc(C(=O)N3CCCC3)cc2)c(=O)c2ccc(C)nc21,"8.91 µM [rising, partial curve, poor fit]",–
CCOc1ccccc1Nc1nc(N)nc(CN2CCCCC2C)n1 (stereo not drawn),"0.794 µM [rising, full curve, poor fit]",–
O=C(CCSCCc1ccccn1)Nc1nccs1,"11.2 µM [falling, partial curve]",–
C=CC[C@@H](CC(=O)N[C@@H](CO)Cc1ccccc1)C(=O)N[C@H](COC(=O)[C@@H](CC=C)Cc1ccc(F)cc1)C(C)(C)C,"23.1 µM [falling, single point]",–
COc1ccc(CN(CC2CCC(C(=O)O)CC2)C(=S)Nc2ccccc2OC)cc1 (stereo not drawn),"3.55 µM [falling, partial curve, poor fit]",–
COC(=O)c1ccccc1NC(=S)NC(=O)CC(C)C,"7.94 µM [falling, partial curve, poor fit]",–
Oc1ccc(-c2nccc(-c3ccc(Cl)cc3Cl)n2)cc1,"11.2 µM [rising, partial curve]",–
Cc1cc(C)nc(N/N=C/c2ccc3c(c2)OCCO3)n1,"35.5 µM [falling, single point]",–
CCC(=O)Nc1ccc(C(=O)CN2C(=O)NC3(CCOc4ccccc43)C2=O)cc1 (stereo not drawn),"2.31 µM [rising, partial curve, poor fit]",–
N=C1C(c2nc3ccccc3s2)=C(O)CN1NC(=O)c1ccc([N+](=O)[O-])cc1,"12.6 µM [falling, single point]",–
COc1cc(/C=N\NC(=O)c2sc(N)nc2C)cc(OC)c1OC,"1.26 µM [falling, full curve]",–
CCOC(=O)c1ccc(-n2ccnc2)c(NC(=O)c2cccc(Br)c2)c1,"25.9 µM [falling, partial curve]",–
Cc1nnsc1SCCNC(=O)Nc1ccc(Cl)cc1,"0.355 µM [rising, partial curve, poor fit]",–
O=[N+]([O-])c1ccc(-c2cn3c(n2)CCC3)cc1,"8.91 µM [rising, partial curve, poor fit]",–
COc1ccc(NC(=O)NNC(=O)C(C)Oc2ccc(C(C)C)cc2)c(OC)c1 (stereo not drawn),"15.8 µM [falling, single point]",–
CC(NC(=O)CSc1nc2ccccc2c(=O)n1CCCO)c1ccccc1 (stereo not drawn),"29.1 µM [falling, single point]",–
COc1cc(NC(C)=O)c2ncccc2c1NC(C)=O,"11.2 µM [falling, single point]",–

# 3 consecutive records from above, quoted:
Structure (SMILES),AC50 [1],AC50 [2]
C=CC[C@@H](CC(=O)N[C@@H](CO)Cc1ccccc1)C(=O)N[C@H](COC(=O)[C@@H](CC=C)Cc1ccc(F)cc1)C(C)(C)C,"23.1 µM [falling, single point]",–
COc1ccc(CN(CC2CCC(C(=O)O)CC2)C(=S)Nc2ccccc2OC)cc1 (stereo not drawn),"3.55 µM [falling, partial curve, poor fit]",–
COC(=O)c1ccccc1NC(=S)NC(=O)CC(C)C,"7.94 µM [falling, partial curve, poor fit]",–

# Additional structures.

Structure (SMILES),AC50 [1],AC50 [2]
COc1cccc(CC2(CO)CCN(S(=O)(=O)N(C)C)CC2)c1,"31.6 µM [rising, partial curve, poor fit]",–
CCOC(=O)N1CCN(C(=O)CSc2nc3c([nH]c4ccccc43)c(=O)n2CC)CC1,"0.398 µM [falling, partial curve, poor fit]",–
Cc1ccc(NS(=O)(=O)c2ccc3c(c2)oc(=O)n3C)cc1F,"23.1 µM [falling, single point]",–
CCOc1ccc(CSC(=N)N)cc1Cl,"1.26 µM [falling, full curve, poor fit]",–
Cc1ccc(C)n1CCN1CCN(C(=O)CC#N)CC1,"15.8 µM [rising, partial curve, poor fit]",–
CC(=O)N(Cc1cc(=O)[nH]c2ccccc12)c1ccccc1C,"35.5 µM [rising, single point]",–
O=[N+]([O-])c1ccc(NC(=S)NCCc2ccc(Cl)cc2)cc1,"8.2 µM [falling, partial curve, poor fit]",–
COc1cc(/C=C2\SC(=O)NC2=O)ccc1Oc1ccc([N+](=O)[O-])cc1[N+](=O)[O-],–,"12.6 µM [rising, partial curve, poor fit]"
CCN(CC)S(=O)(=O)c1cc(Br)c(C)cc1OC,"1.64 µM [rising, full curve, poor fit]",–
Cc1noc(C)c1C(=O)NC1=NCCS1,"35.5 µM [falling, single point]",–
CCN1CCn2c1nc(N1CCOCC1)nc2=O,"20.6 µM [rising, single point]",–
COc1cc(C(=O)Nc2ccc(NC(=O)c3ccccc3)nc2)cc(OC)c1OC,"25.1 µM [falling, single point]",–
COc1ccc(CNC(=O)c2ccc3nc(-c4ccc(F)cc4)c(-c4ccc(F)cc4)nc3c2)cc1,"35.5 µM [rising, single point]",–
CC(C)OC(=O)CC(=O)CSc1nc2c(c(-c3cccs3)c1C#N)CCC2,"32.6 µM [falling, single point]","25.9 µM [rising, partial curve, poor fit]"
O=C(CSc1nc2ccccc2[nH]1)c1ccccc1F,"12.6 µM [falling, single point]",–
Cc1cc(C(=O)N/N=C/c2ccccc2Br)no1,"10 µM [falling, partial curve, poor fit]",–
Cc1ccc(-c2nc(N)n(C(=O)c3cccs3)n2)cc1,"0.794 µM [falling, full curve, poor fit]",–
CCCn1nnnc1SCC(=O)Nc1sc(C)c(C)c1C#N,"35.5 µM [falling, single point]",–
COc1cccc(N2CCN(Cc3ncc(-c4ccccc4)o3)CC2)c1,"7.08 µM [falling, partial curve]",–
COC(=O)c1nn(-c2ccccc2)c(Sc2ccc(OC)cc2)c1/C=N/O,"14.1 µM [falling, single point]",–
COc1cccc(NC(=O)N2CCN(c3cccc(C)c3)C(C)C2)c1 (stereo not drawn),"10 µM [falling, partial curve]",–
